The full ranking holds about 33,000 sequences; the median of “E-score (-0.5 to 0.5)” is about -0.0014, and the highest 2% start at about 0.25. Some of the results follow.

The target in this experiment is T1, Cad1 (UniProt P24813).
T1 sequence: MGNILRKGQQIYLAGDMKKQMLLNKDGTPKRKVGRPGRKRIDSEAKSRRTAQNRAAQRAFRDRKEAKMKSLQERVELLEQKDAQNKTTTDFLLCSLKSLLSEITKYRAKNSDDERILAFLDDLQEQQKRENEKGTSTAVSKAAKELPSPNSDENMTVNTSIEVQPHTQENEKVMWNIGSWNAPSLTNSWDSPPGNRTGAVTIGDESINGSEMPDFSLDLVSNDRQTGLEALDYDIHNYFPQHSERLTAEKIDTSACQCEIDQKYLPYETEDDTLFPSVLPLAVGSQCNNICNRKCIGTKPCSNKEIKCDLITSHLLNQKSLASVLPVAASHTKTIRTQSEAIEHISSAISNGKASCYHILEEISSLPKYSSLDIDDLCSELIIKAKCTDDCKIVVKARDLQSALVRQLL
In words: PBM E-score (8-mer binding enrichment) (E-score (-0.5 to 0.5)); higher = stronger / more preferred TF binding. Conditions: protein concentration: 100 nM; construct: GST-full length. The method, then:
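Universal 'all 10-mer' protein binding microarrays (Agilent AMADID 015681) probed with GST-tagged S. cerevisiae TFs (full-length or DBD) made by in vitro transcription/translation (PURExpress), about 100-200 nM. Bound TF was detected with fluorescent anti-GST. Each ungapped 8-mer (which stands for itself and its reverse complement) is scored by the PBM enrichment score (E-score), a modified Wilcoxon-Mann-Whitney statistic from -0.5 to +0.5, computed with the Universal PBM Analysis Suite. Scale: above 0.35 generally sequence-specific binding.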
As for CATAGTGA, the “PBM E-score” value is -0.0782.
In the case of CGCAGACA it was 0.122; in that of CATCCCAG, -0.166.
As to ATGACGGC, the “PBM E-score” value is -0.0574.
With CGAGGAAA the figure was -0.0673; with CTATTTTC, 0.0407.
For CTGCACCC, the “PBM E-score” value is -0.136.
In the case of GCGCTGAC it was 0.245.
In the case of CTTTACAC it was 0.172; in that of GCTGGCCC, -0.144; in that of AGATATGC, -0.167.
With AAGCGTCC the figure was 0.0365; with CAGCAGAG, -0.0408.
With ACTTGTGC, the “PBM E-score” value was -0.187.
With CAAAGAGA the figure was -0.113; with AAGGTACA, -0.0137.
In the case of AAAAGTCA, the “PBM E-score” value was -0.0226.
In the case of CGCTAAAG it was 0.0404; in that of AAATCCTC, -0.0802.
With ATAACTCC, the “PBM E-score” value was 0.0565.
With TCGTTGAA the figure was 0.0173.
In the case of CTACGTAC it was -0.0392; in that of ACGGAACC, 0.218.
In the case of CTGGTGAA it was -0.16; in that of GACGGTTA, -0.202.
As for GAATAATA, the “PBM E-score” value turned out to be 0.221.
With ACAAGGAT the figure was 0.0332; with ATCGGTCA, 0.104.
With CATTATCG the figure was 0.0756.
With CACGGTGC the figure was -0.119; with CCATCGCC, -0.0556.
On to ACGACCCG, for which the “PBM E-score” value is 0.112.
For ACGGGGGA, the “PBM E-score” value was -0.273.
Turning to CCTATACA, the “PBM E-score” value is 0.0765.
With AAAGCGAC the figure was 0.0955; with ATAAAAAG, 0.174.
With GGGAATAA the figure was 0.2; with CTCTGCAC, -0.0219.
For AAAGCACT, the “PBM E-score” value amounted to 0.14.
In the case of AATACGCC it was 0.0775; in that of CCGCTATC, 0.0194.
With CGTCCCCA the figure was -0.137.
With GGATTTGA the figure was -0.0857; with CTGTATAC, 0.0948; with GTCAGTCA, 0.0261.
GTCACCTA: the “PBM E-score” value was -0.132.
In the case of ACTTAATC it was 0.00296.
In the case of ACGATTGC it was 0.213; in that of GGCATCAC, -0.0624.
As for GGTATCAC, the “PBM E-score” value is -0.0764.
In the case of AGGTTTTC it was 0.048; in that of AGCCTAGG, -0.113; in that of ACCTTAAA, -0.0455.
With AATTCGGT the figure was 0.266; with GTACAGCA, 0.032.
In the case of ATACACAT it was 0.122; in that of ACAGATAC, 0.144.
For the sequence GTACGCAA, the “PBM E-score” value was found to be 0.0953.
Consider GCAGTTTA, for which the “PBM E-score” value is -0.0956.
In the case of CTGAGGGA it was -0.0379.
In the case of CTAGCAGA it was 0.0267; in that of AATCAAGG, 0.0051.
In the case of CCCGGCAC it was -0.335; in that of CCCAAGTA, -0.121; in that of CGCACACG, -0.156.
With AGAGTCTA, the “PBM E-score” value was -0.202.
Regarding GGGACCTA, the “PBM E-score” value is -0.116.
In the case of ATTTAAAA it was 0.0372.
Turning to GTCAAGAA, the “PBM E-score” value came out at 0.181.
In the case of ATTGTGAC it was 0.147; in that of AAGTGGAA, -0.0197; in that of CAGCCTTA, -0.0382.
Turning to CCCAAACC, the “PBM E-score” value was 0.00294.
CAATAATA: the “PBM E-score” value is 0.208.
With AACGGTGC the figure was -0.0173; with ACTGGGCC, -0.0322; with CGAACCTC, -0.0124.
With AGCTGAAG the figure was 0.0627.
In the case of AGCACCGC it was -0.0637.
Turning to ACCGCACC, the “PBM E-score” value is 0.0104.
With AACCATAA the figure was -0.0319.
In the case of TCATTCAA it was 0.13; in that of GTGTCGGA, -0.0787; in that of GGAGTGAA, -0.116.
With TAGAAGCA the figure was -0.0973; with AGGTGTTG, 0.00353.
As to GTACTGAA, the “PBM E-score” value was found to be 0.234.
In the case of ACAATGGC it was -0.00507.
With CTGGCCGA the figure was -0.299.
With CTGGCAGC the figure was -0.143; with AGCATTTA, -0.0909; with ACGCGTCC, -0.0174.
On to CGGATCCC, for which the “PBM E-score” value came out at 0.017.
In the case of AGACTTGC it was -0.163.

Values taken from the supplement of paper PMC3334620.
